This is one part of the list. The calls rarely recur for the same compound in another form.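 Kinases, fused to nanoluciferase, were expressed in K562 cells; luminescence was measured every 4 h from 2 to 18 h as percent of control (DMSO = 100%, positive control = 0%). A time point is decreased if signal falls significantly (2 sigma). Hits were called by the authors by a rule that is not shown; the count of time points alone does not decide it.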
Assays:
Assay in all cases: number of time points (of 5) at which kinase-Nluc abundance scored as decreased, DMSO-normalised (count); higher = more persistent destabilization
Conditions in all cases: K562; 2-18 h
LMTK2 = LMTK2 (UniProt Q8IWU2)
LYN = LYN (UniProt P07948)
MAP2K1 = MAP2K1 (UniProt Q02750)
MAP2K2 = MAP2K2 (UniProt P36507)
MAP4K2 = MAP4K2 (UniProt Q12851)
MAPK1 = MAPK1 (UniProt P28482)
MAPK4 = MAPK4 (UniProt P31152)
MAPKAPK2 = MAPKAPK2 (UniProt P49137)
MKNK1 = MKNK1 (UniProt Q9BUB5)
NTRK2 = NTRK2 (UniProt Q16620)

Amino acid sequences for entries named in this document (tags omitted). A change or cut given only in a name is not applied to a line headed by its entry.
UniProt Q8IWU2: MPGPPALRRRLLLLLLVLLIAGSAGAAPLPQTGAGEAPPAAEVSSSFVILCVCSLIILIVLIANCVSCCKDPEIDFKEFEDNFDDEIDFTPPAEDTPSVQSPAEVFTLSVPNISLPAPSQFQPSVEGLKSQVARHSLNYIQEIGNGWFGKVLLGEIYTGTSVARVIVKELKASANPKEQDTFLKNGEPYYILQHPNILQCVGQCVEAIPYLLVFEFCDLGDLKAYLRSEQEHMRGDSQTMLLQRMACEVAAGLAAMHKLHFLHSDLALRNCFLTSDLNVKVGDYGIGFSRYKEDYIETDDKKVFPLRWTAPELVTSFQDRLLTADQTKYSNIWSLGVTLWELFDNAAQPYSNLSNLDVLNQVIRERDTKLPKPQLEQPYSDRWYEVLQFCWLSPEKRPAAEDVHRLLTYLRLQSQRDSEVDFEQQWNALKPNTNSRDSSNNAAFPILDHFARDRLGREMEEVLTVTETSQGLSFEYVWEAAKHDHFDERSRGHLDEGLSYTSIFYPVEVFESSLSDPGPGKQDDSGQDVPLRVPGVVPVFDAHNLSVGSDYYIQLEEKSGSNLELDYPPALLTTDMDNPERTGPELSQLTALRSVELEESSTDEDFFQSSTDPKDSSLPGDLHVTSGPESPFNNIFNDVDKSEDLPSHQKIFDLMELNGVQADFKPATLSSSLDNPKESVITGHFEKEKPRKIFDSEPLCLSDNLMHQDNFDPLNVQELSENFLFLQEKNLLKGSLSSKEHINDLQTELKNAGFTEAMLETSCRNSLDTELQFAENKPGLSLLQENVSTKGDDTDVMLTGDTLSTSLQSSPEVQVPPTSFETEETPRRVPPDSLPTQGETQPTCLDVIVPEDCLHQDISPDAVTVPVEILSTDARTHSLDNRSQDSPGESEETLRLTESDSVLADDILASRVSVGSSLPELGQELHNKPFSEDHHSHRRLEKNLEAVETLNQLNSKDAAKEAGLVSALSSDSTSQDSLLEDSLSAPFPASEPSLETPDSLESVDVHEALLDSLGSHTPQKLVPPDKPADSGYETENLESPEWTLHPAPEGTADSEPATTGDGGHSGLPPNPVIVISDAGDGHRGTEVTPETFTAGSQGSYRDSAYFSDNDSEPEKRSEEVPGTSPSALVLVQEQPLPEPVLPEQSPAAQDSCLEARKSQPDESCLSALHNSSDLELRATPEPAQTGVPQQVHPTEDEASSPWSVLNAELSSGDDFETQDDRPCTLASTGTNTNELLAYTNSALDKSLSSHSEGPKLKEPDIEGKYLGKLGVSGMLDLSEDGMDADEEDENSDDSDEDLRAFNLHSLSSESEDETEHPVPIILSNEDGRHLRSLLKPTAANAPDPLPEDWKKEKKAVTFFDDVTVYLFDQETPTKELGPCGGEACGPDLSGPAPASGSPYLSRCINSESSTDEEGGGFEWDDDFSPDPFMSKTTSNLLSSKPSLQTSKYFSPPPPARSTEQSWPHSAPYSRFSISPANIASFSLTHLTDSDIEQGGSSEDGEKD
UniProt P07948: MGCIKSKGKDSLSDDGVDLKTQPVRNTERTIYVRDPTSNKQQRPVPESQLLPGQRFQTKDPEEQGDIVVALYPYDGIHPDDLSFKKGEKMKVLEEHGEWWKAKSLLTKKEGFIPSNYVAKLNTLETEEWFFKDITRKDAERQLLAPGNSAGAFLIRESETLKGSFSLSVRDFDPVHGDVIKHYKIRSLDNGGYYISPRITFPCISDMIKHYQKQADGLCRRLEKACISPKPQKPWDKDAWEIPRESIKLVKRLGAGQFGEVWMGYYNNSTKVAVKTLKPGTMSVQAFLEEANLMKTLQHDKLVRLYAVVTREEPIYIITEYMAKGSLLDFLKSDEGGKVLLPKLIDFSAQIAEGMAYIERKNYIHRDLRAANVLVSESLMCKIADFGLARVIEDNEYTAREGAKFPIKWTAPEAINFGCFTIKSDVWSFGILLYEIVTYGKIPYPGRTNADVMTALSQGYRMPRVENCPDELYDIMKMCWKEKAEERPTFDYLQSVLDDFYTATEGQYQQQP
UniProt Q12851: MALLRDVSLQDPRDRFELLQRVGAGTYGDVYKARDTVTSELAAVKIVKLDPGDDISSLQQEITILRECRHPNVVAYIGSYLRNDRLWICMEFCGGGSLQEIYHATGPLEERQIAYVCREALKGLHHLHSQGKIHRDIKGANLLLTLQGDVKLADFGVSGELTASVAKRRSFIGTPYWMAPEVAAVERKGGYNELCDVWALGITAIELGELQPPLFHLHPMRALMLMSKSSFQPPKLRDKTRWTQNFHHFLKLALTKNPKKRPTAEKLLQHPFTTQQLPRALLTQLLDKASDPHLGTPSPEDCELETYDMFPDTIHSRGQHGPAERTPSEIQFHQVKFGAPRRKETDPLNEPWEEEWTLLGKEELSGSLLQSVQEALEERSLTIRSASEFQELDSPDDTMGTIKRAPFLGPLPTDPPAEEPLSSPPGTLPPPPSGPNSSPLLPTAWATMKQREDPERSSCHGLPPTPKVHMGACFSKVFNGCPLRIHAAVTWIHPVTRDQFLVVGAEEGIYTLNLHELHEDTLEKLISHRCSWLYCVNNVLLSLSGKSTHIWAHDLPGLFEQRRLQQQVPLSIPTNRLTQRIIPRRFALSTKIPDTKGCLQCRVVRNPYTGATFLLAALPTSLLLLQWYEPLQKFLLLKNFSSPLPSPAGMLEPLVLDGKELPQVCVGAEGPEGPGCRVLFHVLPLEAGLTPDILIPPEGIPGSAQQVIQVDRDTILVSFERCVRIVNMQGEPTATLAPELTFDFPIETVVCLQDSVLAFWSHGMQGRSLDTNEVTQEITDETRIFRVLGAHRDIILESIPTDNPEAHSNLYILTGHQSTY
UniProt P28482, whole entry: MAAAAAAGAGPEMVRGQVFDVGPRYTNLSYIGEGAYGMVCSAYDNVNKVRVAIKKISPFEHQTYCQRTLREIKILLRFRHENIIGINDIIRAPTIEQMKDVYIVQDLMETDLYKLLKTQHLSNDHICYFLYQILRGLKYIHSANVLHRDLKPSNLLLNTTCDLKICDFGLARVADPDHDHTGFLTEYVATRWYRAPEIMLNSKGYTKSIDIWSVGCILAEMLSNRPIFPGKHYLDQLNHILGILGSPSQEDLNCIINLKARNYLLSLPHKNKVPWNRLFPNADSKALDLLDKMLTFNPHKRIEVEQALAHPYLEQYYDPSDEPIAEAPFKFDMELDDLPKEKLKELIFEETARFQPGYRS
UniProt P31152, whole entry: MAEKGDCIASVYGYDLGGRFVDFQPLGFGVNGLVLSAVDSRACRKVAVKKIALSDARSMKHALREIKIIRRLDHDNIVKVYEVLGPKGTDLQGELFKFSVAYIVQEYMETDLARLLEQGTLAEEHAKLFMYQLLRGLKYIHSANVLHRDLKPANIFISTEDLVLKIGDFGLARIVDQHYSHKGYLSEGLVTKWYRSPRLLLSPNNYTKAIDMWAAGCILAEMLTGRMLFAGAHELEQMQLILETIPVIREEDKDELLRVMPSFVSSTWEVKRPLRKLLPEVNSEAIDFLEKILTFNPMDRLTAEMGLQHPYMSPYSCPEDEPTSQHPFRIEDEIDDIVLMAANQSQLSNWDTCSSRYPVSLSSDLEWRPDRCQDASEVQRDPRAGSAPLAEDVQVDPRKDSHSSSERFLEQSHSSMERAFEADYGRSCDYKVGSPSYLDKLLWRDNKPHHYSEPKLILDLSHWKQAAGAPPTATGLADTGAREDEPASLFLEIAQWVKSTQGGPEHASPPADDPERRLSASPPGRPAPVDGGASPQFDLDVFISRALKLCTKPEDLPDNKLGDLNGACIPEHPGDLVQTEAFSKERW
UniProt P49137, whole entry, looked up: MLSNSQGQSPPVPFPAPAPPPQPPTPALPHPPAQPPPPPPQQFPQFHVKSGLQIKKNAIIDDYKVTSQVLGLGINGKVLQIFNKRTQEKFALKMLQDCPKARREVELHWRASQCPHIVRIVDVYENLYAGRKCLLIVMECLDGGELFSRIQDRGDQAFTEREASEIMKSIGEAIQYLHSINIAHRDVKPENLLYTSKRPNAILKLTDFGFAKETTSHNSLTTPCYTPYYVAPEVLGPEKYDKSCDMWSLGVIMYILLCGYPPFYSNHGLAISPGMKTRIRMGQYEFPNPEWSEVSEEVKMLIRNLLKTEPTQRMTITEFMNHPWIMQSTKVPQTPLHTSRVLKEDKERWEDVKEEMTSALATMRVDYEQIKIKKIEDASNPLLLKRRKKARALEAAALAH
UniProt Q9BUB5: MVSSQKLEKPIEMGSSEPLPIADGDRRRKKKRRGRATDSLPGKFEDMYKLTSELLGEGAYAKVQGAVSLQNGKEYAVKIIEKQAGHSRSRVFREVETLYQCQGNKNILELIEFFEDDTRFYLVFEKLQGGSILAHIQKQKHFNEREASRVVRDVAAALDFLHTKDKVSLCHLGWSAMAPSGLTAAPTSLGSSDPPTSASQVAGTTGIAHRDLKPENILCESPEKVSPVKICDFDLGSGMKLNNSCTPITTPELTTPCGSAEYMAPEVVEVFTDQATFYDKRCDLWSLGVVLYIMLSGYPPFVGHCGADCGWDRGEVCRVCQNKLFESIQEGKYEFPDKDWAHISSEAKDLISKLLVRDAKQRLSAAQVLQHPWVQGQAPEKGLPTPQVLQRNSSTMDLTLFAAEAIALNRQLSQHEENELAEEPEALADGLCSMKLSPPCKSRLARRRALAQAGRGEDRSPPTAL
UniProt Q16620, whole entry, looked up: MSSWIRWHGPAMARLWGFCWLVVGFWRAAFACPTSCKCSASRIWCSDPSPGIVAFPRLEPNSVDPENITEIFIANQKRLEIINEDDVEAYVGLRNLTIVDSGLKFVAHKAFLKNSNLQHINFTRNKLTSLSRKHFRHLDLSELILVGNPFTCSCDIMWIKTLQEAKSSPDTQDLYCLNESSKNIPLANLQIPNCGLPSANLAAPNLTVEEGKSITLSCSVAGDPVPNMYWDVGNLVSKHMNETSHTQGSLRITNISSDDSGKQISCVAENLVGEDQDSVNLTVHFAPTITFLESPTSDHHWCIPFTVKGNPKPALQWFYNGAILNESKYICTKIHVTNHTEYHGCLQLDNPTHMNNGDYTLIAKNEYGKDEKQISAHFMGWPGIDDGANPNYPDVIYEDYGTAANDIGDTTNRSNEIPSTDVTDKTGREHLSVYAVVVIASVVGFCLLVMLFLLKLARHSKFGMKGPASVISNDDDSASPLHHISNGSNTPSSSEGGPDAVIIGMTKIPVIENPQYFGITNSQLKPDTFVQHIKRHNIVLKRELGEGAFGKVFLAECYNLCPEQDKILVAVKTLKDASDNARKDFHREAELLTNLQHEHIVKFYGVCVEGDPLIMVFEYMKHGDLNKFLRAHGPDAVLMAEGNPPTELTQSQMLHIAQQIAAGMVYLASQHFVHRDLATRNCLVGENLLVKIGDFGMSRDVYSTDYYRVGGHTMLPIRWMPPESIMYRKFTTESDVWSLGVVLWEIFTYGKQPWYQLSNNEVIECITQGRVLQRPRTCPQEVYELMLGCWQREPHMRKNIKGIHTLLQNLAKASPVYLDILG

Measured: number of time points

N#Cc1ccc2ncnc(NCCc3ccccc3)c2c1 [Senexin A] (10 µM)
0: all assays above

Nc1ncc(C(=O)NC2CN(C(=O)C3CC3)C2)c2ccc(-c3cccc(F)c3)nc12 (2 µM)
0: all assays above

Clc1ccc(C(c2ccc(Cl)cc2)[n+]2ccn(CC(OCc3ccc(Cl)cc3Cl)c3ccc(Cl)cc3Cl)c2)cc1 (stereo not given) [Calmidazolium chloride] (2.5 µM)
3: MKNK1
1: LMTK2
0: all other assays above

O=C(Nc1cc(Cl)cc2c1[nH]c1cnccc12)c1cccnc1 (10 µM)
0: all assays above

CC1=C(C(=O)Nc2cc3cn[nH]c3cc2F)C(c2ccc(C(F)(F)F)cc2)CC(=O)N1 (stereo not given) (10 µM)
0: all assays above

Nc1nc(N)c2nc(-c3cccc(O)c3)c(-c3cccc(O)c3)nc2n1 (10 µM)
0: all assays above

O=C(ON=C1c2ccccc2-c2nc3ccccc3nc21)c1ccco1 (2.5 µM)
0: all assays above

O=C(O)c1ccc(/C=C/S(=O)(=O)Cc2ccc(Cl)cc2)cc1 [Recilisib] (10 µM)
0: all assays above

CC(C)(C)Cc1[nH]nc2c1[C@@](C)(c1ccccc1)C1=C(CC(C)(C)CC1=O)N2 (10 µM)
1: LMTK2
0: all other assays above

C=CC(=O)Nc1cccc(Oc2nc(Nc3ccc(N4CCN(C)CC4)c(F)c3)nc3[nH]ccc23)c1 [Avitinib (maleate)] (2.5 µM)
0: all assays above

Cc1cccc(-c2[nH]ncc2-c2ccnc3ccccc23)n1 (10 µM)
0: all assays above

Pulled by compound from the list above (three):
O=C(O)c1ccc(/C=C/S(=O)(=O)Cc2ccc(Cl)cc2)cc1 [Recilisib] (10 µM)
0: all assays above

C=CC(=O)Nc1cccc(Oc2nc(Nc3ccc(N4CCN(C)CC4)c(F)c3)nc3[nH]ccc23)c1 [Avitinib (maleate)] (2.5 µM)
0: all assays above

Cc1cccc(-c2[nH]ncc2-c2ccnc3ccccc23)n1 (10 µM)
0: all assays above

The listing continues:

CC(C)n1c(=O)n(C)c2cnc3cc(F)c(-c4ccc(OCCCN5CCCCC5)nc4)cc3c21 (10 µM)
0: all assays above

C[C@@H]1O[C@@H](Oc2cc(O)c3c(=O)c(O[C@@H]4O[C@@H](C)[C@H](O)[C@@H](O)[C@H]4O)c(-c4ccc(O)cc4)oc3c2)[C@H](O)[C@H](O)[C@H]1O [Kaempferitrin] (10 µM)
0: all assays above

COC(=O)Nc1ccc(-c2nc(N3CCOCC3)c3cnn(C4CCN(C(=O)OC)CC4)c3n2)cc1 (10 µM)
0: all assays above

O=C(c1cccc(Cl)c1F)N1CCN(Cc2cccc(Nc3nccs3)n2)CC1 (2.5 µM)
1: LMTK2
0: all other assays above

CCc1c[nH]c2ncnc(N3CC[C@](N)(CNC(=O)c4ccc(F)cc4F)C3)c12 (10 µM)
0: all assays above

N#Cc1ccc(-c2cnc3ccc(-c4ccc(C(=O)N5CCOCC5)cc4)cn23)cc1 (10 µM)
0: all assays above

Cc1cc(Nc2cc(N)ncn2)c(=O)n2c1C(=O)NC21CCCCC1 [Tomivosertib] (10 µM)
0: all assays above

COc1cc2c(cc1O)C[C@H]1c3cc(O)c(OC)cc3CC[N@@+]1(C)C2 [Phellodendrine] (10 µM)
0: all assays above

CCN1CCN(Cc2cnc(Nc3cc(-c4cc(F)c5nc(C)n(C(C)C)c5c4)c(F)cn3)nc2)CC1 (10 µM)
3: LMTK2
0: all other assays above

CNC(=O)c1ccc2c(C(=Nc3cccc(CN(C)C)c3)c3ccccc3)c(O)[nH]c2c1 [MEK inhibitor] (10 µM)
0: all assays above

C[C@@H](Nc1ncnc2[nH]c(-c3ccc(O)cc3)cc12)c1ccccc1 (2.5 µM)
0: all assays above

CO[C@H]1C[C@@H]2CC[C@@H](C)[C@@](O)(O2)C(=O)C(=O)N2CCCC[C@H]2C(=O)O[C@H]([C@H](C)C[C@@H]2CC[C@@H](OCCO)[C@H](OC)C2)CC(=O)[C@H](C)/C=C(\C)[C@@H](O)[C@@H](OC)C(=O)[C@H](C)C[C@H](C)/C=C/C=C/C=C/1C [Everolimus] (10 µM)
0: all assays above

Cc1cc(Nc2cc(N3CCN(C)CC3)nc(Nc3ccc([N+](=O)[O-])cc3)n2)n[nH]1 (2.5 µM)
0: all assays above

COCCOc1ccc2c(c1)ncn2-c1ccc2cccc(N3CCC(N)CC3)c2n1 (10 µM)
4: LMTK2 | MKNK1
1: NTRK2
0: all other assays above

COc1cc2c(cc1Nc1ncc(C(N)=O)c(Nc3c(F)cccc3C(F)(F)F)n1)CN(C)CC2 (2.5 µM)
0: all assays above

Cc1cc(O)c2c(c1)C(=O)c1cccc(O)c1C2=O [Chrysophanol] (2 µM)
0: all assays above

N#C/C(=C\c1ccc(O)c(O)c1)C(=O)O [Tyrphostin AG30] (10 µM)
0: all assays above

CO[C@H]1C[C@@H]2CC[C@@H](C)[C@@](O)(O2)C(=O)C(=O)N2CCCC[C@H]2C(=O)O[C@H]([C@H](C)C[C@@H]2CC[C@@H](OC(=O)C(C)(CO)CO)[C@H](OC)C2)CC(=O)[C@H](C)/C=C(\C)[C@@H](O)[C@@H](OC)C(=O)[C@H](C)C[C@H](C)/C=C/C=C/C=C/1C [Temsirolimus] (2.5 µM)
0: all assays above

c1nn(C2CCOCC2)cc1Nc1ncc2nnn(-c3ccc4cn[nH]c4c3)c2n1 (10 µM)
0: all assays above

O=c1cc(N2CCOCC2)oc2c(-c3ccc4c(c3)OCCO4)csc12 (2.5 µM)
0: all assays above

COc1cc2cc(Oc3ccc4ccc(=O)oc4c3)c(=O)oc2cc1O [Daphnoretin] (10 µM)
0: all assays above

CCNC(=O)C#Cc1ccc2c(C(=Nc3ccc(CN(C)C)cc3)c3ccccc3)c(O)[nH]c2c1 (2.5 µM)
0: all assays above
